Measurements reported in the supplement of paper PMC4807443.
Structures can show the parent of a compound that is named as a salt. The list shows a part of the results. The numbers are fractions of the control, whatever unit the source prints. Most entries show no effect beyond the scatter of the controls.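 MIN6 is a mouse insulinoma beta-cell line that stably carries a lentiviral reporter in which the Pdx1 and Ins1 promoters each drive a nucleus-targeted fluorescent protein; cells were counted by automated imaging with a Hoechst nuclear stain. In the screen, a drug was a possible hit when its Ins1 promoter readout lay beyond two median absolute deviations from the DMSO controls while Pdx1 activity stayed near normal.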

Tested on: MIN6
Assay: % Pdx1+ Ins1+ (double-positive, mature) cells relative to DMSO control (fold of DMSO control); higher = more mature Ins1 promoter-active cells
Conditions: 8.5 µM; 48 h; glucose 5 mM

| Compound | % Pdx1+ Ins1+ |
| --- | --- |
| O=C1CCC(N2C(=O)c3ccccc3C2=O)C(=O)N1 (centres undefined) [Thalidomide] | 1.07 |
| CNCCCN1c2ccccc2CCc2ccccc21 [Desipramine hydrochloride] | 0.745 |
| O=C(O)[C@]1(O)C[C@@H](O)[C@@H](O)[C@H](O)C1 [Quinic acid] | 1.06 |
| O=C1OC(CN2CCOCC2)CN1/N=C/c1ccc([N+](=O)[O-])o1 (centres undefined) [Furaltadone hydrochloride] | 0.871 |
| Cc1cccc(Nc2ccccc2C(=O)O)c1C [Mefenamic acid] | 1.14 |
| C[n+]1ccccc1/C=N/O [Pralidoxime chloride] | 0.935 |
| CN1CCC(OC(c2ccccc2)c2ccccc2)CC1 [Diphenylpyraline hydrochloride] | 0.873 |
| CN(C)CCCN1c2ccccc2CCc2ccccc21 [Imipramine hydrochloride] | 1.02 |
| NC(CO)C(=O)NNCc1ccc(O)c(O)c1O (centres undefined) [Benserazide hydrochloride] | 0.968 |
| NCCC[C@H](N)CC(=O)N[C@H]1CNC(=O)[C@H]([C@H]2C[C@H](O)NC(N)=N2)NC(=O)/C(=C/NC(N)=O)NC(=O)[C@H](CO)NC(=O)[C@H](CO)NC1=O [Viomycin sulfate] | 0.865 |
| Fc1ccc([C@@H]2CCNC[C@H]2COc2ccc3c(c2)OCO3)cc1 [Paroxetine Hydrochloride] | 0.949 |
| NCC[C@H](O)C(=O)N[C@@H]1C[C@H](N)[C@@H](O[C@H]2O[C@H](CN)[C@@H](O)[C@H](O)[C@H]2O)[C@H](O)[C@H]1O[C@H]1O[C@H](CO)[C@@H](O)[C@H](N)[C@H]1O [Amikacin hydrate] | 1.02 |
| Cn1cnc([N+](=O)[O-])c1Sc1ncnc2[nH]cnc12 [Azathioprine] | 0.983 |
| COc1c2c(nc3ccccc13)OC(C(C)(O)CO)C2 (centres undefined) [Dubinidine] | 0.992 |
| CC(C)C(=O)Nc1ccc([N+](=O)[O-])c(C(F)(F)F)c1 [Flutamide] | 0.975 |
| CC1COc2c(N3CCN(C)CC3)c(F)cc3c(=O)c(C(=O)O)cn1c23 (centres undefined) [Ofloxacin] | 1.14 |
| O=C(O)CCCC[C@@H]1SC[C@@H]2NC(=O)N[C@@H]21 [Biotin] | 0.97 |
| COCC(=O)Nc1c(I)c(C(=O)NCC(O)CO)c(I)c(C(=O)N(C)CC(O)CO)c1I (centres undefined) [Iopromide] | 0.947 |
| C[C@@]1(O)CCOC(=O)C1 [Mevalonic-D, L acid lactone] | 0.801 |
| COC(=O)C1=C(C)NC(C)=C(C(=O)OC(C)C)C1c1cccc2nonc12 (centres undefined) [Isradipine] | 0.791 |
| C[C@H](CCC(=O)O)[C@H]1CC[C@H]2[C@@H]3CC[C@@H]4C[C@H](O)CC[C@]4(C)[C@H]3CC[C@]12C [Lithocholic acid] | 0.73 |
| CC(=O)SCC(Cc1ccccc1)C(=O)NCC(=O)OCc1ccccc1 (centres undefined) [Racecadotril] | 0.988 |
| Nc1nc(N)c2nc(-c3ccccc3)c(N)nc2n1 [Triamterene] | 0.887 |
| C=C1CC[C@H](O)C/C1=C/C=C1\CCC[C@]2(C)[C@@H]([C@H](C)/C=C/[C@H](C)C(C)C)CC[C@@H]12 [Calciferol] | 1.21 |
| CC(C)(C)NC(=O)[C@H]1CC[C@H]2[C@@H]3CC[C@H]4NC(=O)C=C[C@]4(C)[C@H]3CC[C@]12C [Finasteride] | 0.771 |

| Compound | % Pdx1+ Ins1+ |
| --- | --- |
| CN1[C@@H]2CC[C@H]1C[C@@H](OC(=O)C(O)c1ccccc1)C2 (mixture of isomers) [Homatropine hydrobromide (R,S)] | 1.04 |
| CC(C)(C)CC(C)(C)c1ccc(OCCOCC[N+](C)(C)Cc2ccccc2)cc1 [Benzethonium chloride] | 0.0633 |
| CCCCOc1ccc(C(=O)CCN2CCCCC2)cc1 [Dyclonine hydrochloride] | 1.19 |
| C=C1C(=O)O[C@H]2[C@H]1CC/C(C)=C/CC[C@@]1(C)O[C@@H]21 [Parthenolide] | 0.778 |
| CC(CN(C)C)CN1c2ccccc2CCc2ccccc21 (centres undefined) [Trimipramine maleate salt] | 1.06 |
| COC(=O)[C@H]1[C@H]2C[C@H]3c4[nH]c5ccccc5c4CCN3C[C@H]2CC[C@@H]1O [Rauwolscine hydrochloride] | 0.877 |
| CC(C)NCC(O)COc1cccc2[nH]ccc12 (centres undefined) [Pindolol] | 1.01 |
| OC(CCN1CCCC1)(c1ccccc1)C1CCCCC1 (centres undefined) [Procyclidine hydrochloride] | 0.938 |
| Nc1ncnc2c1ncn2[C@@H]1O[C@@H]2COP(=O)(O)O[C@H]2[C@H]1O [(-)-Adenosine 3',5'-cyclic monophosphate] | 1.06 |
| C[C@H]1[C@H]2CC[C@H]3[C@@H]4CC=C5C[C@@H](N(C)C)CC[C@]5(C)[C@H]4CC[C@]23CN1C [Conessine] | 1.1 |
| C[C@H](CS)C(=O)N1CCC[C@H]1C(=O)O [Captopril] | 1.02 |
| CC1(C)O[C@@H]2C[C@H]3[C@@H]4C[C@H](F)C5=CC(=O)C=C[C@]5(C)[C@H]4[C@@H](O)C[C@]3(C)[C@]2(C(=O)CO)O1 [Flunisolide] | 0.855 |
| CC1O[C@H](O[C@]2(O[C@H]3CC[C@@]4(C)C(=CC[C@H]5[C@@H]6C[C@H]7[C@H]([C@H](C)[C@H]8CC[C@H](C)CN87)[C@@]6(C)CC[C@@H]54)C3)C[C@@H](O[C@@H]3OC(CO)[C@@H](O)[C@@H](O)C3O)[C@@H](O)C(CO)O2)C(O)[C@@H](O)[C@H]1O (stereo partly drawn) [Solanine alpha] | 0.761 |
| CC[C@H](c1ccc(O)cc1)[C@@H](CC)c1ccc(O)cc1 [Hexestrol] | 0.882 |
| Cc1c(Nc2ncccc2C(=O)O)cccc1C(F)(F)F [Flunixin meglumine] | 0.957 |
| NNC(=O)c1ccncc1 [Isoniazid] | 1.12 |
| CC1(C)O[C@@H]2C[C@H]3[C@@H]4C[C@H](F)C5=CC(=O)CC[C@]5(C)[C@H]4[C@@H](O)C[C@]3(C)[C@]2(C(=O)CO)O1 [Flurandrenolide] | 0.886 |
| O=c1[nH]c(=O)n([C@H]2C[C@H](O)[C@@H](CO)O2)cc1I [Idoxuridine] | 1.14 |
| Cc1cccc(N(C)C(=S)Oc2ccc3ccccc3c2)c1 [Tolnaftate] | 1.07 |
| O=C(O)c1cccnc1 [Niacin] | 0.9 |
| CCCCc1oc2ccccc2c1C(=O)c1cc(I)c(OCCN(CC)CC)c(I)c1 [Amiodarone hydrochloride] | 0.879 |
| CCN1CCCC1CNC(=O)c1cc(S(N)(=O)=O)ccc1OC (centres undefined) [Sulpiride] | 1.07 |
| CC12CC3CC(C)(C1)CC(N)(C3)C2 [Memantine Hydrochloride] | 0.88 |
| O=C(Nc1ccc([N+](=O)[O-])cc1Cl)c1cc(Cl)ccc1O [Niclosamide] | 1.07 |
| CCOc1ccc(Cc2nccc3cc(OCC)c(OCC)cc23)cc1OCC [Ethaverine hydrochloride] | 1 |

A run of entries from the list above, as a working copy:

| Compound | % Pdx1+ Ins1+ |
| --- | --- |
| CC1(C)O[C@@H]2C[C@H]3[C@@H]4C[C@H](F)C5=CC(=O)C=C[C@]5(C)[C@H]4[C@@H](O)C[C@]3(C)[C@]2(C(=O)CO)O1 [Flunisolide] | 0.855 |
| CC1O[C@H](O[C@]2(O[C@H]3CC[C@@]4(C)C(=CC[C@H]5[C@@H]6C[C@H]7[C@H]([C@H](C)[C@H]8CC[C@H](C)CN87)[C@@]6(C)CC[C@@H]54)C3)C[C@@H](O[C@@H]3OC(CO)[C@@H](O)[C@@H](O)C3O)[C@@H](O)C(CO)O2)C(O)[C@@H](O)[C@H]1O (stereo partly drawn) [Solanine alpha] | 0.761 |
| CC[C@H](c1ccc(O)cc1)[C@@H](CC)c1ccc(O)cc1 [Hexestrol] | 0.882 |
| Cc1c(Nc2ncccc2C(=O)O)cccc1C(F)(F)F [Flunixin meglumine] | 0.957 |
| NNC(=O)c1ccncc1 [Isoniazid] | 1.12 |

Following part:

| Compound | % Pdx1+ Ins1+ |
| --- | --- |
| C#C[C@]1(O)CC[C@H]2[C@@H]3CCC4=Cc5oncc5C[C@]4(C)[C@H]3CC[C@@]21C [Danazol] | 1.08 |
| CCC[C@@H]1C[C@@H](C(=O)N[C@@H]([C@H]2O[C@H](SC)[C@H](O)[C@@H](O)[C@H]2O)[C@@H](C)O)N(C)C1 [Lincomycin hydrochloride] | 1.12 |
| CN1CCCN=C1/C=C/c1cccs1 [Pyrantel tartrate] | 1.13 |
| OC(CCN1CCCCC1)(c1ccccc1)c1ccccc1 [Pridinol methanesulfonate salt] | 0.842 |
| CCN(CC)CCNC(=O)c1cc(Br)c(N)cc1OC [Bromopride] | 0.871 |
| CC(C)NNC(=O)c1ccncc1 [Iproniazide phosphate] | 1.07 |
| CN1CCN2c3ccccc3Cc3ccccc3C2C1 (centres undefined) [Mianserine hydrochloride] | 1.03 |
| N[C@@H](Cc1ccc(O)c(O)c1)C(=O)O [Levodopa] | 1.13 |
| O=C(O)CCC(=O)c1ccc(-c2ccccc2)cc1 [Fenbufen] | 0.992 |
| C[N+](C)(C)CCOC(N)=O [Carbachol] | 0.8 |
| CC(C)(C)NC[C@H](O)COc1cccc2c1CCCC2=O [(-) -Levobunolol hydrochloride] | 0.972 |
| Nc1ncn(C2OC(CO)C(O)C2O)c(=O)n1 (centres undefined) [Azacytidine-5] | 0.959 |
| O=C1c2c(O)ccc(O)c2C(=O)c2c(NCCNCCO)ccc(NCCNCCO)c21 [Mitoxantrone dihydrochloride] | 0.0706 |
| CCOC(=O)C1=C(C)NC(C)=C(C(=O)OC)C1c1cccc(Cl)c1Cl (centres undefined) [Felodipine] | 0.746 |
| C[C@H](CCC(=O)O)[C@H]1CC[C@H]2[C@@H]3C(=O)C[C@@H]4CC(=O)CC[C@]4(C)[C@H]3CC(=O)[C@]12C [Dehydrocholic acid] | 1.08 |
| C[N+](C)(CCOc1ccccc1)Cc1ccccc1.O=C([O-])c1cc2ccccc2cc1O [Bephenium hydroxynaphthoate] | 0.92 |
| CC(NCCc1ccc(O)cc1)C(O)c1ccc(O)cc1 (centres undefined) [Ritodrine hydrochloride] | 0.871 |
| CCC1(C)CC(=O)NC1=O (centres undefined) [Ethosuximide] | 0.969 |
| CCCNC(C)(C)COC(=O)c1ccccc1 [Meprylcaine hydrochloride] | 1.03 |
| CC(=O)Oc1ccc(C(c2ccc(OC(C)=O)cc2)c2ccccn2)cc1 [Bisacodyl] | 0.964 |
| CCC(C)(C)C(=O)O[C@H]1C[C@@H](C)C=C2C=C[C@H](C)[C@H](CC[C@@H]3C[C@@H](O)CC(=O)O3)[C@H]21 [Simvastatin] | 1.17 |
| O=C1O[C@H]([C@@H](O)CO)C(O)=C1O [Ascorbic acid] | 1.16 |
| O=C(O)c1ccccc1Nc1cccc(C(F)(F)F)c1 [Flufenamic acid] | 1.08 |
| CC[N+](C)(CC)CCC[n+]1c(-c2ccccc2)c2cc(N)ccc2c2ccc(N)cc21 [Propidium iodide] | 0.921 |
